From publication doi:10.1101/2021.10.31.466654 come the findings set out here.

Amino acid sequences for entries named in this document (tags omitted). A change or cut given only in a name is not applied to a line headed by its entry. Chains listed by the source or under a name are the forms on record and can include a tag or linker. Residues count along the entry.
WT GPI-anchored mouse CRT expressed on B16 (P14211, residues 18-416): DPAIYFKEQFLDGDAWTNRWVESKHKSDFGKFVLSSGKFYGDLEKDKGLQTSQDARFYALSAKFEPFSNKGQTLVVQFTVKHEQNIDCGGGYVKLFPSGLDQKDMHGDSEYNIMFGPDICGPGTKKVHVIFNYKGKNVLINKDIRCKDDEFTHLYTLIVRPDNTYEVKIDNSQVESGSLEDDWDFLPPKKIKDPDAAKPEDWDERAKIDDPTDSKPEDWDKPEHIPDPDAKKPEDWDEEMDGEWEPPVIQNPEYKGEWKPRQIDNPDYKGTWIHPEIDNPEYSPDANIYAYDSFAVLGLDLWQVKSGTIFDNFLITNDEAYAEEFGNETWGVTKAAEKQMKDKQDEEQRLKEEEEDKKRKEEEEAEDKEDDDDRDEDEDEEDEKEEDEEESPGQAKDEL
GPI-anchored mouse CRT D244A expressed on B16 (P14211, form named): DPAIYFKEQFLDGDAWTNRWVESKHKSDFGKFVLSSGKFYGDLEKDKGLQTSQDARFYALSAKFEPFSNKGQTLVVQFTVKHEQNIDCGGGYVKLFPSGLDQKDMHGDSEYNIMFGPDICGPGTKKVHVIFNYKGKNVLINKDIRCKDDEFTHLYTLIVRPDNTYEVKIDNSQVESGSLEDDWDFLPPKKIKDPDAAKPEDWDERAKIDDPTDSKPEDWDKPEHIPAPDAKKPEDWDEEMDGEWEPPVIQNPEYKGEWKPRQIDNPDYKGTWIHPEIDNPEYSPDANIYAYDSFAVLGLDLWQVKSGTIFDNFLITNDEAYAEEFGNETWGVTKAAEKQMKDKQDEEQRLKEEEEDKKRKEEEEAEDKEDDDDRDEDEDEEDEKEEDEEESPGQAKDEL
GPI-anchored mouse CRT D258A expressed on B16 (P14211, form named): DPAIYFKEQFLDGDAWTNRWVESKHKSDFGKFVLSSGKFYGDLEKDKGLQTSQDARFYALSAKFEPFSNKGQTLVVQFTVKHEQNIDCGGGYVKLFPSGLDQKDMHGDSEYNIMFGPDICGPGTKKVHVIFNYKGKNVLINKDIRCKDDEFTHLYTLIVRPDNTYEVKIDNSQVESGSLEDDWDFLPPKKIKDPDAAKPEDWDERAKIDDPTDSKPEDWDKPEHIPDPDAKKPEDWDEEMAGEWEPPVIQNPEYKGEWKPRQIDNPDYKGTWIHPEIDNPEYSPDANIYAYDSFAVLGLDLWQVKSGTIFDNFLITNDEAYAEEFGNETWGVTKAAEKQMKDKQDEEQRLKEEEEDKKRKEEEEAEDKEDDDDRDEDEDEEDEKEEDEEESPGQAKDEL
GPI-anchored mouse CRT D237A expressed on B16 (P14211, form named): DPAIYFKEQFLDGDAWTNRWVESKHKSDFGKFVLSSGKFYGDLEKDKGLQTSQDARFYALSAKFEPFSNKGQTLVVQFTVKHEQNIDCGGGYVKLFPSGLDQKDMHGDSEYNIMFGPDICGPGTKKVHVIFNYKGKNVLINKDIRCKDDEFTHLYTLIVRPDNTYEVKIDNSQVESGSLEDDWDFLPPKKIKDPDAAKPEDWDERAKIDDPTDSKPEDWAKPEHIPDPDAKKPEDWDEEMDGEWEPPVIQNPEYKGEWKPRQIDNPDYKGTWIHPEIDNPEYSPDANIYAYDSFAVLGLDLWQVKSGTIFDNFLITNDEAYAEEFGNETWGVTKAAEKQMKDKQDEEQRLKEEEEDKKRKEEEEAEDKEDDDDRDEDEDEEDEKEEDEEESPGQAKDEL
UniProt Q9NYZ4, residues 17-363: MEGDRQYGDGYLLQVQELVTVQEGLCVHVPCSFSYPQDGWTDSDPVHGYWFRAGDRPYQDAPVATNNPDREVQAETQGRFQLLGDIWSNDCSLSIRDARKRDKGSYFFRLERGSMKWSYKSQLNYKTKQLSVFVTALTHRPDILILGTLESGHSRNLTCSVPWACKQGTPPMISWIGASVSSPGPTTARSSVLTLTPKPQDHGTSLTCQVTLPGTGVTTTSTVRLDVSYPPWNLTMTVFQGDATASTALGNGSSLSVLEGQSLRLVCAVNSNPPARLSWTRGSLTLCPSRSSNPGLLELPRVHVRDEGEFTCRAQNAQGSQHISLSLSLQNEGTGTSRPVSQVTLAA
UniProt O43699, residues 27-347: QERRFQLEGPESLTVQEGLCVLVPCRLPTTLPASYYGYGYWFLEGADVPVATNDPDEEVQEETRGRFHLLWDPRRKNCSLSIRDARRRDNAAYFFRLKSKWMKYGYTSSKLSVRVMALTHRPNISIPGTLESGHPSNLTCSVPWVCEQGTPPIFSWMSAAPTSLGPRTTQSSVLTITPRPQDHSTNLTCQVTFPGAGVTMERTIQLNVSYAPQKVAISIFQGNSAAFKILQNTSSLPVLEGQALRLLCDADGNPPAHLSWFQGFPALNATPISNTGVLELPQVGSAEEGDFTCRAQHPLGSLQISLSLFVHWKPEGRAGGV

Experiment [1] concerns the target Alexa647-labeled NKp46-Fc (human) (UniProt O76036). Description: MST.
Experiment [2] concerns the target neuraminidase treated Alexa647-labeled NKp46-Fc (human) (UniProt O76036). The experiment in a line: MST.
Experiment [3] has as its target GPI-anchored mouse CRT D244A expressed on B16 (mouse) (UniProt P14211). Description: flow cytometry on cells.
Experiment [4] addresses GPI-anchored mouse CRT D258A expressed on B16 (mouse) (UniProt P14211). The experiment in a line: flow cytometry on cells.
Experiment [5] addresses WT GPI-anchored mouse CRT expressed on B16 (mouse) (UniProt P14211). Description: flow cytometry on cells.
Experiment [6] concerns the target GPI-anchored mouse CRT D237A expressed on B16 (mouse) (UniProt P14211). Description: flow cytometry on cells.

No constants are given. Whether binding was seen depends on the method and setting. Some entries that bind do so weakly or less than the wild type.

As for Siglec8-His tag (from UniProt Q9NYZ4), the binding entry in experiment [1] is “binds”. Consider “His-tagged CRT (from UniProt P27797 18-417)”, for which the binding entry in experiment [2] was “binds”. In the case of Siglec6-His tag (from UniProt O43699), in experiment [1], the binding result is “binds”.

B1: NCR1-Ig (Fc fusion, UniProt Q8C567)
chain: QRINTEKETLPKPIIWAKPSIMVTNGNSVNIWCQGAQSASEYQLYFEGSFFALERPKPSRSMNKVRFFISQMTSHTAGIYTCFYQSGELWSKSSNPLKLVVTGLYDTPNLWVYPRPEVTLGENVTFFCQLKTATSKFFLLKERGSNHIQNKYGNIQAEFPMGPVTRAHRGTYRCFGSYNDYAWSFPSEPVTLLITGGVENSSLAPTDPTSSLDYWEFDLSTNESGLQKDSAFWDHTTQN
As to B1, the binding result in experiment [3] is “binds”; in experiment [4] it was “no binding (tested: 50 μg/ml)”; in experiment [5] it was “binds”; in experiment [6], “no binding (tested: 50 μg/ml)”.
